# This is one part of the list. The main result of the screen is listed elsewhere. These columns were measured beside it and carry no call. The list favours compounds with an active or inconclusive main result.
# Experiment: reducers of endogenous Her2 protein level, primary screen, SKBR3 breast tumor cells, AlphaScreen, ATP viability (AID 461);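 also: percent of carrier control wells set as 100% viability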
# Conditions: 18-24 h, measured here: SKBR3 viability, ATP luminescence, at 10 µM
row,Compound,viability
1,O=C(CSc1nc(-c2ccco2)cc(C(F)(F)F)n1)N1CCCc2ccccc21,109%
2,C/C(Cl)=C\Cn1c(NCCc2ccccc2)nc2c1c(=O)n(C)c(=O)n2C,86%
3,CCc1c(C)n([O-])c2c([n+]1=O)CCC2,104%
4,O=C(C1CC1)N1CCc2cc(Br)cc(S(=O)(=O)N3CCOCC3)c21,98%
5,Cc1oc(-c2cccc(Cl)c2)nc1CN1CCC(C(=O)N2CCN(c3ccccc3F)CC2)CC1,73%
6,COc1ccc(NC(=O)c2oc3ccccc3c2NC(=O)c2ccco2)cc1,90%
7,CCOC(=O)c1ccc(NC(=O)CCc2nc(-c3ccc(C)cc3)no2)cc1,85%
8,COC(=O)c1ccccc1NC(=O)COc1ccc(S(=O)(=O)N2CCCC2)cc1C,90%
9,COc1ccc(-n2cc(-c3ccccc3)c3c(N4CCN(CCO)CC4)ncnc32)cc1,100%
10,CCN(CC)c1ccc2c(c1)CCCN2,86.5%
11,COc1ccc(C)cc1C(=O)CCC(=O)Nc1ccccc1N1CCOCC1,90%
12,Cc1ccc(C)c(N2CCN(CCCNC(=O)Cn3cc4c(n3)CCCCC4)CC2)c1,42%
13,Cc1cc(-n2c(C)cc(C(=O)CSc3nnnn3-c3ccc(Cl)cc3)c2C)no1,81.5%
14,COCC(=O)Nc1c(C(=O)Nc2ccccc2OC)oc2ccccc12,78%
15,N#CC1=C(N)N(c2ccccc2)C(c2ccccc2)C1(C#N)C#N (stereo unspecified),84.5%
16,CCCCCCCCNC(C)C(O)c1ccc(SC(C)C)cc1 (stereo unspecified),41%
17,CCOC(=O)C1=C(CS(=O)(=O)c2ccc(F)c(C)c2)NC(=O)NC1c1ccc(O)c(O)c1 (stereo unspecified),112%
18,O=C(Nc1ncc(Cc2ccccc2)s1)C1CCCO1 (stereo unspecified),91.5%

row,Compound,viability
1,Cc1ccc(F)cc1NC(=O)c1cccc2nccnc12,91.5%
2,OC1C=CSc2nc3ccccc3n21 (stereo unspecified),83.5%
3,C=C(C)COc1ccc(-c2n[nH]c(C)c2-c2ccccc2)c(O)c1,56%
4,CSC1=N/C(=C\C=C\c2cccs2)C(=O)S1,95%
5,Cc1ccc(C)n1-c1ccc(N2CCOCC2)cc1,104%
6,CCCc1[nH]nc2c1C(c1cn[nH]c1-c1ccc(F)cc1)C(C#N)=C(N)O2 (stereo unspecified),98.5%
7,CCCCNC(=O)CSc1nc2ccc(N3CCOCC3)cc2c(=O)n1CCc1ccccc1,95.5%
8,CN(C)CC(C(=O)c1ccccc1)c1ccccc1 (stereo unspecified),30.5%
9,Fc1cccc(Nc2cc(-n3cccn3)ncn2)c1,95%
10,CC1CCN(c2c(NCc3ccc(C(=O)N4c5ccccc5CC4C)cc3)c(=O)c2=O)CC1 (stereo unspecified),95%
11,CCN(CC)S(=O)(=O)c1ccc2[nH]cc(C(=O)NCCC3=CCCCC3)c(=O)c2c1,138%
12,C/C(=N\O)C(=O)C(CN1CCCCC1)CN1CCCCC1,116%
13,CCOc1ccccc1CN(Cc1ccco1)S(=O)(=O)c1ccc(-n2cnnn2)c(OC)c1,82.5%
14,CCOC(=O)c1ccccc1NC1c2ccccc2C(=O)N1C1CCN(C(=O)OCC)CC1 (stereo unspecified),126%
15,Clc1cccc(-c2nnc(-c3ccccc3)o2)c1,57%
16,Cc1nc(NC2=NCN(CCCN3CCOCC3)CN2)nc2c(C)cccc12,158%
17,CC(C)Cc1nc2oc3c(N4CCN(CCO)CC4)ncnc3c2c2c1CCCC2,50.5%
18,CCc1ccccc1NC(=O)C(CC)Sc1nc2cc3c(cc2c(=O)n1Cc1ccco1)OCO3 (stereo unspecified),95.5%

# Some of these compounds in order of heavy-atom count, low to high:
row,Compound,viability
12,C/C(=N\O)C(=O)C(CN1CCCCC1)CN1CCCCC1,116%
16,Cc1nc(NC2=NCN(CCCN3CCOCC3)CN2)nc2c(C)cccc12,158%
18,CCc1ccccc1NC(=O)C(CC)Sc1nc2cc3c(cc2c(=O)n1Cc1ccco1)OCO3 (stereo unspecified),95.5%

# From PubChem BioAssay
